Patent US20240294632A1
Results are given in words; binding and its absence hold for the method and conditions named. Some results given as binding are weak or reduced against the parent protein; the word gives no strength.

The chains behind the UniProt entries cited, without tags or fusion partners. Residues count along the entry.
UniProt P02769, residues 25-607: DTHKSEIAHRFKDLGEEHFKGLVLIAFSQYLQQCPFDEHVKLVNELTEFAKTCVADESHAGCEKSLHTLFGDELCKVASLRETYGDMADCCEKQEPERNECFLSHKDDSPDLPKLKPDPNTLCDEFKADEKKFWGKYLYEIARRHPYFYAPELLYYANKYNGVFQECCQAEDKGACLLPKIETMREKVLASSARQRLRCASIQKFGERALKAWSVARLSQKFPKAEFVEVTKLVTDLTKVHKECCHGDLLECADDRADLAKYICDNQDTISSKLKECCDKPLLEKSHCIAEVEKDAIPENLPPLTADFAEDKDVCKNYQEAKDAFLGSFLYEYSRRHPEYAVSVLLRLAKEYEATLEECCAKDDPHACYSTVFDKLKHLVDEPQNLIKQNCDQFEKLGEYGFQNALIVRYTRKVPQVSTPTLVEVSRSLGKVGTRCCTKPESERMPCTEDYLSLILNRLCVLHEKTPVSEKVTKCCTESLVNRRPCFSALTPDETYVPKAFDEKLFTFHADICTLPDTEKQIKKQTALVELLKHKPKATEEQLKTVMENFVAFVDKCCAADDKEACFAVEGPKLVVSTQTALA

Experiments:
BSA (bovine) = BSA (bovine) (UniProt P02769); assay: ELISA, Fab titrated on BSA as control
PAS #1 sequence [1] = target: T1, PAS #1 sequence; assay: SPOT peptide array / hybridoma screening
T1 sequence (peptide): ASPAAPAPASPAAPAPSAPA

P/A #1 sequence = target: T2, P/A #1 sequence; assay: SPOT peptide array / hybridoma screening
T2 sequence (peptide): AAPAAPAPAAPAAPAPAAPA

PAS #1 sequence [2] = target: T1, PAS #1 sequence; assay: ELISA and SPR with Fabs
[3] = target: T3, Pga-…; assay: co-crystal structure of the recombinant Fab with the peptide
T3 sequence (peptide, N-terminal pyroglutamyl residue (Pga), counted as P1 in the structures): APASPAAPA

B1: Fab fragment of Anti-PA(S) MAb 2.1 (Fab, V domains shown)
VH: QVTLKESGPGILQPSQTLSLTCSFSGFSLSTYDMGVGWIRQPSGKGLEWLANIWWNDNKYYNSALKSRLTISKDTSNNQVFLKISSVDATDTATYYCAQMRDNYGVWFAFWGQGTLVTVSA
VL: DIVMSQSPSSLAVSVGEKVTMSCKSSQSLFYSNREKNYLAWYQQKPGQSPKLLIYWASTRESGVPDRFTGSGSGTDFTLTISNVKAEDLAVYYCQQYYNYPTFGAGTKLELKR
**Q.** How did the binding (BSA (bovine)) turn out when B1 was run?
**A.** no binding (tested: 50 nM)

B2: Anti-PA(S) MAb 1.1 (antibody, V domains shown)
VH: QVQLKESGPGLVAPSQSLSITCTVSGFSLTGYGVNWVRQPPGKGLEWLGMIWGDGITDYNSALKSRLSISKDNSKSQVFLKMNSLQTDDTARYYCARDYYGRRYYAMDYWGQGTSVTVSS
VL: DIVLTQSPASLAVSLGQRATISCRASKSVSSSGYNYMFWYQQKPGQPPKLLIYLASNLESGVPDRFWGSGSGTDFTLNIHPVEEEDAATYYCQHSRELPLTFGAGTKLELKR
**Q.** How did the binding (PAS #1 sequence [1]) turn out when B2 was run?
**A.** binds

B3: Anti-PA(S) MAb 1.2 (antibody, V domains shown)
VH: QVQLVESGGGLVQPGGSLKLSCAASGFTFSSYGMSWVRQTPDKRLELVATINSNGGSTYYLDSVKGRFTISRDKAKNTLYLQMSSLKSEDTAMYYCVRGGSIYDGYDYAMDYWGQGTSVTVSS
VL: DIVLTQSPASLAVSLGQRATISCRASQSVSTSSYSYMHWFQQKPGQPPKLLIKYASNLESGVPARFSGSGSGTDFTLNIHPVEEEDTATYYCQHSWEIPLTFGAGTKLELKR
**Q.** With B3 as the binder, how does the binding (PAS #1 sequence [1]) read?
**A.** binds

B4: Anti-PA(S) MAb 2.1 (antibody, V domains shown)
VH: B1 VH
VL: B1 VL
**Q.** What does the source list for B4?
**A.** binding (PAS #1 sequence [1]): binds; binding (P/A #1 sequence): binds

B5: Fab fragment of Anti-PA(S) MAb 1.1 (Fab, V domains shown)
VH: B2 VH
VL: B2 VL
**Q.** For B5, which binding (PAS #1 sequence [2]) is on record?
**A.** binds

**Q.** What about the binding [3] of the same binder?
**A.** binds
